Test: Comparison of EPA in filtered and unfiltered solutions
Settings: 46 g water 130° C., 250 psi, two 20 μm frits and 0.45 μm Nalgene filter
Description: A fluid path syringe was filled with 46 g of 18.2 MΩcm water and 8.75 g of 720 mM NaOH, 400 mM TRIS and 536 μM EDTA was put into the fluid path receiver. A mixture of ^12C pyruvic acid and EPA in the ratio of 53:1 respectively was placed in the sample container of the fluid path to simulate the hyperpolarized imaging agent. The water in the syringe was heated to 130° C. and the sample container was dipped into liquid nitrogen. The system was pressurized to 250 psi. A 0.45 μm Nalgene filter was connected on the back end of the filter body. The filter body contained two diffusers and two frits normally used to hold a chemical resin in place, but in this instance were used as mechanical particle size exclusion filters (Varian, part number 12131043, 1.5″ diameter, average pore size 20 μm). The valves of the fluid path were opened in the normal sequence for the dissolution to occur.

## tris {8-carboxyl-2,2,6,6-tetra[2-(1-methoxyethyl)]-benzo(1,2-d:4,5-d′)bis(1,3)dithiole-4-yl}methyl sodium salt [EPA]
  reduction in EPA concentration as compared to an unfiltered system: 99%
Two diffusers
  EPA concentration of resulting solution in the receiver: < 3 µM

Source: patent publication US8763410B2, “Method and apparatus for the dissolution and filtration of a hyperpolarized agent with a neutral dissolution media” (General Electric Company, priority 2008, dated 2014)
